{"source": "patent US9266830B2", "about": "“Pesticidal arylpyrrolidines” (Bayer Intellectual Property GmbH, priority 2007, dated 2016)", "assay_type_in_all_cases": "in vivo", "key": {"[1]": {"test_system": "Ctenocephalides felis", "test": "Ctenocephalides felis test (CTECFE), blood feeding", "settings": "application rate 100 ppm in cattle blood, adult fleas, after 2 days"}, "[2]": {"test_system": "Musca domestica", "test": "Musca domestica test (sugar sponge)", "settings": "application rate 100 ppm, adults, after 2 days"}, "[3]": {"test_system": "Amblyomma hebraeum", "test": "Amblyomma hebraeum test (AMBYHE), nymph immersion", "settings": "application rate 100 ppm, nymphs, after 42 days", "description": "Solvent: dimethyl sulfoxide\nTo produce a suitable preparation of active compound, 10 mg of active compound are dissolved in 0.5 ml solvent, and the concentrate is diluted with water to the desired concentration. Nymphs of the tick Amblyomma hebraeum are placed in perforated plastic beakers and immersed in aqueous compound solution for one minute. Ticks are transferred to a filter paper in a Petri dish and incubated in a climate chamber for 42 days.\nAfter 42 days mortality in % is determined 100% means that all the ticks have been killed; 0% means that none of the ticks have been killed."}, "[4]": {"test_system": "Boophilus microplus", "test": "Boophilus microplus (dip)", "settings": "application rate 100 ppm, adult engorged females, after 7 days"}, "[5]": {"test_system": "Lucilia cuprina larvae", "test": "Lucilia cuprina test (larvae in minced horse meat)", "settings": "application rate 100 ppm, after 2 days"}}, "note": "Some of these results come from one statement about several compounds together.", "data": [{"compound": "O=C(CC(F)(F)F)NCc1ccc(N2CCC(c3cc(Cl)c(Cl)c(Cl)c3)(C(F)(F)F)C2)cc1C(F)(F)F", "note": "(stereo not drawn) [1-327]", "values": [{"measurement": "activity (mortality in %)", "setting": "[1]", "value": 100, "unit": "%"}, {"measurement": "activity (mortality in %)", "setting": "[2]", "value": 100, "unit": "%"}, {"measurement": "activity (mortality in %)", "setting": "[3]", "value": 100, "unit": "%"}, {"measurement": "activity (mortality in %)", "setting": "[4]", "value": 100, "unit": "%"}, {"measurement": "activity (mortality in %)", "setting": "[5]", "value": 100, "unit": "%"}]}, {"compound": "CC(C)C(=O)NCc1ccc(N2CCC(c3cc(Cl)c(Cl)c(Cl)c3)(C(F)(F)F)C2)cc1C(F)(F)F", "note": "(stereo not drawn) [1-329]", "values": [{"measurement": "activity (mortality in %)", "setting": "[1]", "value": 100, "unit": "%"}, {"measurement": "activity (mortality in %)", "setting": "[2]", "value": 100, "unit": "%"}, {"measurement": "activity (mortality in %)", "setting": "[3]", "value": 100, "unit": "%"}, {"measurement": "activity (mortality in %)", "setting": "[4]", "value": 100, "unit": "%"}, {"measurement": "activity (mortality in %)", "setting": "[5]", "value": 100, "unit": "%"}]}, {"compound": "CCNC(=O)NCc1ccc(N2CCC(c3cc(Cl)c(Cl)c(Cl)c3)(C(F)(F)F)C2)cc1C(F)(F)F", "note": "(stereo not drawn) [1-330]", "values": [{"measurement": "activity (mortality in %)", "setting": "[1]", "value": 100, "unit": "%"}, {"measurement": "activity (mortality in %)", "setting": "[2]", "value": 100, "unit": "%"}, {"measurement": "activity (mortality in %)", "setting": "[3]", "value": 100, "unit": "%"}, {"measurement": "activity (mortality in %)", "setting": "[4]", "value": 100, "unit": "%"}, {"measurement": "activity (mortality in %)", "setting": "[5]", "value": 100, "unit": "%"}]}, {"compound": "CCC(=O)NCc1ccc(N2CCC(c3cc(Cl)c(Cl)c(Cl)c3)(C(F)(F)F)C2)cc1Cl", "note": "(stereo not drawn) [1-338]", "values": [{"measurement": "activity (mortality in %)", "setting": "[1]", "value": 100, "unit": "%"}, {"measurement": "activity (mortality in %)", "setting": "[2]", "value": 100, "unit": "%"}, {"measurement": "activity (mortality in %)", "setting": "[3]", "value": 100, "unit": "%"}, {"measurement": "activity (mortality in %)", "setting": "[4]", "value": 100, "unit": "%"}, {"measurement": "activity (mortality in %)", "setting": "[5]", "value": 100, "unit": "%"}]}, {"compound": "O=C(NCc1ccc(N2CCC(c3cc(Cl)c(Cl)c(Cl)c3)(C(F)(F)F)C2)cc1Cl)C1CC1", "note": "(stereo not drawn) [1-339]", "values": [{"measurement": "activity (mortality in %)", "setting": "[1]", "value": 100, "unit": "%"}, {"measurement": "activity (mortality in %)", "setting": "[2]", "value": 100, "unit": "%"}, {"measurement": "activity (mortality in %)", "setting": "[3]", "value": 100, "unit": "%"}, {"measurement": "activity (mortality in %)", "setting": "[4]", "value": 100, "unit": "%"}, {"measurement": "activity (mortality in %)", "setting": "[5]", "value": 100, "unit": "%"}]}, {"compound": "O=C(CC(F)(F)F)NCc1ccc(N2CCC(c3cc(Cl)c(Cl)c(Cl)c3)(C(F)(F)F)C2)cc1Cl", "note": "(stereo not drawn) [1-340]", "values": [{"measurement": "activity (mortality in %)", "setting": "[1]", "value": 100, "unit": "%"}, {"measurement": "activity (mortality in %)", "setting": "[2]", "value": 80, "unit": "%"}, {"measurement": "activity (mortality in %)", "setting": "[3]", "value": 100, "unit": "%"}, {"measurement": "activity (mortality in %)", "setting": "[4]", "value": 100, "unit": "%"}, {"measurement": "activity (mortality in %)", "setting": "[5]", "value": 100, "unit": "%"}]}, {"compound": "CCNC(=O)NCc1ccc(N2CCC(c3cc(Cl)c(Cl)c(Cl)c3)(C(F)(F)F)C2)cc1Cl", "note": "(stereo not drawn) [1-341]", "values": [{"measurement": "activity (mortality in %)", "setting": "[1]", "value": 100, "unit": "%"}, {"measurement": "activity (mortality in %)", "setting": "[2]", "value": 100, "unit": "%"}, {"measurement": "activity (mortality in %)", "setting": "[3]", "value": 100, "unit": "%"}, {"measurement": "activity (mortality in %)", "setting": "[4]", "value": 100, "unit": "%"}, {"measurement": "activity (mortality in %)", "setting": "[5]", "value": 100, "unit": "%"}]}, {"compound": "CCC(=O)NCc1ccc(N2CCC(c3cc(Cl)c(Cl)c(Cl)c3)(C(F)(F)F)C2)cc1Br", "note": "(stereo not drawn) [1-345]", "values": [{"measurement": "activity (mortality in %)", "setting": "[1]", "value": 100, "unit": "%"}, {"measurement": "activity (mortality in %)", "setting": "[2]", "value": 100, "unit": "%"}, {"measurement": "activity (mortality in %)", "setting": "[3]", "value": 100, "unit": "%"}, {"measurement": "activity (mortality in %)", "setting": "[4]", "value": 100, "unit": "%"}, {"measurement": "activity (mortality in %)", "setting": "[5]", "value": 100, "unit": "%"}]}, {"compound": "O=C(NCc1ccc(N2CCC(c3cc(Cl)c(Cl)c(Cl)c3)(C(F)(F)F)C2)cc1Br)C1CC1", "note": "(stereo not drawn) [1-346]", "values": [{"measurement": "activity (mortality in %)", "setting": "[1]", "value": 100, "unit": "%"}, {"measurement": "activity (mortality in %)", "setting": "[2]", "value": 100, "unit": "%"}, {"measurement": "activity (mortality in %)", "setting": "[3]", "value": 100, "unit": "%"}, {"measurement": "activity (mortality in %)", "setting": "[4]", "value": 100, "unit": "%"}, {"measurement": "activity (mortality in %)", "setting": "[5]", "value": 100, "unit": "%"}]}, {"compound": "O=C(CC(F)(F)F)NCc1ccc(N2CCC(c3cc(Cl)c(Cl)c(Cl)c3)(C(F)(F)F)C2)cc1Br", "note": "(stereo not drawn) [1-347]", "values": [{"measurement": "activity (mortality in %)", "setting": "[1]", "value": 100, "unit": "%"}, {"measurement": "activity (mortality in %)", "setting": "[2]", "value": 100, "unit": "%"}, {"measurement": "activity (mortality in %)", "setting": "[3]", "value": 100, "unit": "%"}, {"measurement": "activity (mortality in %)", "setting": "[4]", "value": 100, "unit": "%"}, {"measurement": "activity (mortality in %)", "setting": "[5]", "value": 100, "unit": "%"}]}, {"compound": "O=C(NCc1ccc(N2CCC(c3cc(Cl)cc(C(F)(F)F)c3)(C(F)(F)F)C2)cc1C(F)(F)F)C1CC1", "note": "(stereo not drawn) [1-357]", "values": [{"measurement": "activity (mortality in %)", "setting": "[1]", "value": 100, "unit": "%"}, {"measurement": "activity (mortality in %)", "setting": "[2]", "value": 100, "unit": "%"}, {"measurement": "activity (mortality in %)", "setting": "[3]", "value": 100, "unit": "%"}, {"measurement": "activity (mortality in %)", "setting": "[4]", "value": 100, "unit": "%"}, {"measurement": "activity (mortality in %)", "setting": "[5]", "value": 100, "unit": "%"}]}, {"compound": "O=C(CC(F)(F)F)NCc1cnc(N2CCC(c3cc(Cl)c(Cl)c(Cl)c3)(C(F)(F)F)C2)cc1C(F)(F)F", "note": "(stereo not drawn) [1-380]", "values": [{"measurement": "activity (mortality in %)", "setting": "[1]", "value": 95, "unit": "%"}, {"measurement": "activity (mortality in %)", "setting": "[2]", "value": 100, "unit": "%"}, {"measurement": "activity (mortality in %)", "setting": "[3]", "value": 100, "unit": "%"}, {"measurement": "activity (mortality in %)", "setting": "[4]", "value": 100, "unit": "%"}, {"measurement": "activity (mortality in %)", "setting": "[5]", "value": 100, "unit": "%"}]}, {"compound": "CCS(=O)(=O)CC(=O)NCc1ccc(N2CCC(c3cc(Cl)cc(Cl)c3)(C(F)(F)F)C2)cc1C(F)(F)F", "note": "(stereo not drawn) [1-501]", "values": [{"measurement": "activity (mortality in %)", "setting": "[1]", "value": 100, "unit": "%"}, {"measurement": "activity (mortality in %)", "setting": "[2]", "value": 100, "unit": "%"}, {"measurement": "activity (mortality in %)", "setting": "[3]", "value": 100, "unit": "%"}, {"measurement": "activity (mortality in %)", "setting": "[4]", "value": 100, "unit": "%"}, {"measurement": "activity (mortality in %)", "setting": "[5]", "value": 100, "unit": "%"}]}, {"compound": "C[S+]([O-])CC(=O)NCc1ccc(N2CCC(c3cc(Cl)c(Cl)c(Cl)c3)(C(F)(F)F)C2)cc1C(F)(F)F", "note": "(stereo not drawn) [1-729]", "values": [{"measurement": "activity (mortality in %)", "setting": "[1]", "value": 100, "unit": "%"}, {"measurement": "activity (mortality in %)", "setting": "[2]", "value": 100, "unit": "%"}, {"measurement": "activity (mortality in %)", "setting": "[3]", "value": 100, "unit": "%"}, {"measurement": "activity (mortality in %)", "setting": "[4]", "value": 100, "unit": "%"}, {"measurement": "activity (mortality in %)", "setting": "[5]", "value": 100, "unit": "%"}]}, {"compound": "CC(=O)NC1CCc2cc(N3CCC(c4cc(Cl)c(Cl)c(Cl)c4)(C(F)(F)F)C3)ccc21", "note": "(stereo not drawn) [6-267]", "values": [{"measurement": "activity (mortality in %)", "setting": "[1]", "value": 100, "unit": "%"}, {"measurement": "activity (mortality in %)", "setting": "[2]", "value": 100, "unit": "%"}, {"measurement": "activity (mortality in %)", "setting": "[3]", "value": 100, "unit": "%"}, {"measurement": "activity (mortality in %)", "setting": "[4]", "value": 100, "unit": "%"}, {"measurement": "activity (mortality in %)", "setting": "[5]", "value": 100, "unit": "%"}]}]}
